# Test results taken from PubChem BioAssay AID540276 (National Center for Advancing Translational Sciences (NCATS), 2011).
# About 5,400 (1.8%) of roughly 300,000 compounds were called active. Inconclusive means that the source gave no clear call. Such entries were picked first, then a sample of the others. The call rests on the fitted dose curve; tested in HEK293 cells. A potency beside an inconclusive call is a rough fit, not a confirmed value.
# Assay: qHTS for inhibitors of binding or entry into cells for Marburg Virus
# Details: Marburg virus pseudotyped entry inhibition, cell reporter; series mostly up to 37.8 µM
# Potency means the concentration at half of the fitted maximal effect.
row,Compound,Potency
1,COc1ccc(C(=O)Nc2cccc(S(=O)(=O)NCc3ccco3)c2)cc1,inactive
2,CCNS(=O)(=O)c1ccc2nc(NC(=O)c3cccnc3)sc2c1,inactive
3,CCN1C(=NCC(C)C)N[C@@H](CCc2ccccc2)[C@H](C(=O)OC)[C@H]1C,"inconclusive: 6.68 µM [inhibitor, single point]"
4,CCCN(c1ccc(C(C)C)cc1)S(=O)(=O)c1c(C)noc1C,"inconclusive: 20 µM [inhibitor, partial curve, poor fit]"
5,NC1=NC(=O)C2(COC(c3ccncc3)OC2)S1 (stereo not drawn),"inconclusive: 3.98 µM [activator, single point]"
6,Cc1ccn2cc(-c3cc4ccccc4oc3=O)nc2c1,"inconclusive: 2.24 µM [inhibitor, full curve, poor fit]"
7,O=C1CC(N2CCN(c3ccccc3Cl)CC2)C(=O)N1c1ccccc1 (stereo not drawn),inactive
8,COCCN(CC(=O)NCc1ccc(OC)cc1)C(=O)CCC(=O)Nc1nccs1,"inconclusive: 0.112 µM [activator, full curve, poor fit]"
9,Cc1ccc(C(=O)/C=C2\NCC(C)NC2=O)cc1 (stereo not drawn),active: 5.62 µM
10,Cc1ccc2ccccc2c1CSc1nc(N)nc2c1ncn2CC(C)C,"inconclusive: 15.8 µM [inhibitor, single point]"
11,CC1(c2ccc([N+](=O)[O-])cc2)NC(=O)N(CC(=O)Nc2cccnc2Cl)C1=O (stereo not drawn),inactive
12,COc1cc(C2Nc3ccccc3C(=O)N2c2ccc(Cl)cc2)c(Cl)cc1OCC(=O)O (stereo not drawn),"inconclusive: 1.12 µM [activator, full curve, poor fit]"
13,O=C(Oc1ccc(-c2nccc(-c3ccccn3)n2)cc1)c1cccc(C(F)(F)F)c1,"inconclusive: 35.5 µM [activator, single point]"
14,CCOc1ccc(NS(=O)(=O)c2ccc(C(=O)NCc3ccccn3)cc2)cc1,"inconclusive: 10 µM [inhibitor, partial curve, poor fit]"
15,COc1ccc(/C=C/C(=O)Nc2cccc(N3CCOCC3)c2)cc1OC,"inconclusive: 25.1 µM [inhibitor, single point]"
16,O=C(Nc1cccnc1)c1cc(-c2cccs2)on1,inactive
17,COc1ccc2nc(N3C(=O)C(O)=C(C(=O)c4ccco4)C3c3ccc(C)o3)sc2c1 (stereo not drawn),inactive
18,O=C(c1cnsn1)N1CCC(CO)(Cc2ccc(Cl)cc2)CC1,"inconclusive: 35.5 µM [inhibitor, single point]"
19,CCC(C)c1ccccc1NC(=O)Cc1coc2cc3c(cc12)CCC3 (stereo not drawn),"inconclusive: 17.8 µM [inhibitor, single point]"
20,CCOC(=O)c1cnn(-c2ccc(OC)cc2)c1C1CCN(C(=O)OC(C)(C)C)CC1,"inconclusive: 35.5 µM [inhibitor, single point]"
21,CCn1c(CSc2nc3ccccc3n2C)nc2ccccc21,inactive
22,COc1ccc(C2c3c(ccc4ccccc34)Oc3ncn4nc(-c5ccco5)nc4c32)cc1 (stereo not drawn),"inconclusive: 35.5 µM [activator, single point]"
23,CCN1/C(=C/c2ccc3cc(C)ccc3[n+]2CC)Sc2cc(C)c(C)cc21,"inconclusive: 3.55 µM [inhibitor, partial curve, poor fit]"

# Arranged by count of non-hydrogen atoms (high to low): part of the list above
row,Compound,Potency
11,CC1(c2ccc([N+](=O)[O-])cc2)NC(=O)N(CC(=O)Nc2cccnc2Cl)C1=O (stereo not drawn),inactive
1,COc1ccc(C(=O)Nc2cccc(S(=O)(=O)NCc3ccco3)c2)cc1,inactive
4,CCCN(c1ccc(C(C)C)cc1)S(=O)(=O)c1c(C)noc1C,"inconclusive: 20 µM [inhibitor, partial curve, poor fit]"

# (listing goes on)

row,Compound,Potency
1,O=C(Nc1ccccc1C(=O)N1CCN(Cc2ccccc2)CC1)c1ccccn1,"inconclusive: 0.158 µM [activator, full curve, poor fit]"
2,COC(=O)c1ccc(OC)c(Cn2c(=O)n(C)c(=O)c3ccccc32)c1,inactive
3,Cc1ccc(NC(=O)CSc2ccccc2NC(=O)c2ccccc2Cl)cc1Cl,"inconclusive: 35.5 µM [inhibitor, single point]"
4,CCCCN(C(=O)c1cccc2c(=O)c(C)c(-c3ccccc3)oc12)c1ccccc1,"inconclusive: 9.2 µM [inhibitor, partial curve, poor fit]"
5,CCCOc1ccccc1N/C(=N/c1nc(C)cc(C)n1)NC(=O)Nc1ccc(Cl)cc1,active: 0.708 µM
6,Cc1ccc(N=C2NC(=O)/C(=C\c3ccc(C)s3)S2)cc1,"inconclusive: 35.5 µM [activator, single point]"
7,O=C(NCc1ccco1)c1ccc2c(c1)N(Cc1ccccc1)CCS2,inactive
8,C=CCNC(=S)NNC(=O)C(CCCC)CC(C)(C)O (stereo not drawn),"inconclusive: 0.355 µM [inhibitor, partial curve, poor fit]"
9,COC(=O)c1ccccc1NC(=O)C(C)NS(=O)(=O)c1ccc(OC)cc1 (stereo not drawn),"inconclusive: 15.8 µM [inhibitor, partial curve, poor fit]"
10,c1ccc(Oc2cccc3cccnc23)nc1,inactive
11,O=C1Cc2cc(S(=O)(=O)N3CCN(c4ccccc4)CC3)ccc2N1,inactive
12,CN(C(=O)CSc1nncc2ccccc12)c1ccccc1,inactive
13,CCn1c(=O)cc(SCC(=O)Nc2ccc(C)c(F)c2)c2ccccc21,"inconclusive: 35.5 µM [inhibitor, partial curve, poor fit]"
14,Cc1cccc(NC(=O)c2ccccc2NC(=O)C(C)(C)C)n1,"inconclusive: 25.1 µM [inhibitor, single point]"
15,C=CCOC(=O)C1=C(C)NC(=S)NC1c1cccs1 (stereo not drawn),"inconclusive: 20.6 µM [inhibitor, partial curve, poor fit]"
16,CC(C)=CCCC(C)NC(=O)NC1CCCCC1 (stereo not drawn),inactive
17,N#Cc1c(-c2cccc(Br)c2)cc(-c2cccnc2)nc1N,"inconclusive: 22.4 µM [inhibitor, single point]"
18,COc1ccc(S(=O)(=O)Nc2nc3ccccc3nc2NCc2ccc3c(c2)OCO3)cc1,"inconclusive: 5.62 µM [activator, single point]"
19,COc1cc2[nH]c(=O)n(CCC(=O)N3CCN(c4cc(Cl)ccc4C)CC3)c(=O)c2cc1OC,"inconclusive: 18.3 µM [inhibitor, single point]"
20,O=C(CSc1nc2ccccc2c(=O)n1-c1ccccc1)N1CCCC1,"inconclusive: 3.66 µM [activator, partial curve]"
21,Cc1nc(N)sc1-c1csc(Nc2ncccn2)n1,"inconclusive: 5.62 µM [inhibitor, single point]"
22,Cc1cc[n+](CC(=O)N2CCCc3ccccc32)cc1,"inconclusive: 3.98 µM [activator, single point]"
23,Nc1ccc(C2(c3ccc(N)cc3)c3ccccc3C(=O)c3ccccc32)cc1,"inconclusive: 11.2 µM [inhibitor, partial curve, poor fit]"

# Shown as tab-separated lines: three of the compounds above
row	Compound	Potency
2	COC(=O)c1ccc(OC)c(Cn2c(=O)n(C)c(=O)c3ccccc32)c1	inactive
12	CN(C(=O)CSc1nncc2ccccc12)c1ccccc1	inactive
19	COc1cc2[nH]c(=O)n(CCC(=O)N3CCN(c4cc(Cl)ccc4C)CC3)c(=O)c2cc1OC	inconclusive: 18.3 µM [inhibitor, single point]

# Going on with the list.

row,Compound,Potency
1,Cc1cc(SCC(=O)Nc2cccc(S(=O)(=O)NC3=NCCCCC3)c2)c(C)cc1Br,"inconclusive: 16.4 µM [inhibitor, single point]"
2,CCCCn1c(=O)[nH]c2nc3cc(N)ccc3nc2c1=O,inactive
3,Cc1cc(C)cc(N=Cc2[nH]c3ccc(Br)c(Cl)c3c2O)c1,"inconclusive: 5.01 µM [activator, single point]"
4,O=C(COc1ccc(S(=O)(=O)NC2CCCCC2)cc1)N1CCN(c2cccc(Cl)c2)CC1,"inconclusive: 18.3 µM [inhibitor, single point]"
5,N#C/C(=C(/O)C(Cl)c1ccccc1)c1nc2ccccc2s1 (stereo not drawn),"inconclusive: 29.1 µM [inhibitor, single point]"
6,COc1ccc(N2C(=O)C3C(C2=O)C3(c2ccccc2)c2ccccc2)cc1 (stereo not drawn),"inconclusive: 7.94 µM [inhibitor, partial curve, poor fit]"
7,CCOCCCNC(=O)c1ccc(OC)cc1,inactive
8,CC(C)C(=O)N1CCN(c2ccc(NC(=O)c3ccc([N+](=O)[O-])o3)cc2Cl)CC1,"inconclusive: 1.78 µM [inhibitor, partial curve, poor fit]"
9,Cc1ccc(C(c2nnnn2CCc2ccccc2)N2CCC(C)CC2)cc1 (stereo not drawn),"inconclusive: 15.8 µM [inhibitor, single point]"
10,CC(=O)N(C)c1ccc(NC(=O)Cc2cccc3ccccc23)cc1,inactive
11,Cc1ccc(SCC2(O)CCN(S(=O)(=O)c3ccc(Cl)cc3)CC2)cc1,"inconclusive: 9.2 µM [inhibitor, partial curve, poor fit]"
12,O=C(/C=C/c1ccco1)N1CCN(S(=O)(=O)c2ccc(F)c(F)c2F)CC1,inactive
13,COc1ccc(CCNC(=O)C(=O)Nc2ccc3c(c2)OCO3)cc1OC,"inconclusive: 0.794 µM [inhibitor, full curve, poor fit]"
14,CCN(CC)CCCN1C(=O)C(O)=C(C(=O)c2ccc(C)o2)C1c1cccs1 (stereo not drawn),inactive
15,CCOc1ccc(-c2nc(CSCC(=O)NC3CCCc4ccccc43)c(C)o2)cc1 (stereo not drawn),inactive
16,CCOC(=O)C1CCCN(C(=O)Cn2ncc3c([nH]c4ccccc43)c2=O)C1 (stereo not drawn),"inconclusive: 1 µM [inhibitor, full curve, poor fit]"
17,Cc1ccc(CNC(=O)CC2Oc3ccccc3NC2=O)cc1 (stereo not drawn),inactive
18,O=[N+]([O-])c1ccc(/C=C/c2ccc3cccc([N+](=O)[O-])c3n2)cc1,"inconclusive: 4.61 µM [activator, single point]"
19,COc1cc(C(=O)N2CCCN(c3nc4cc(C)ccc4cc3C#N)CC2)cc(OC)c1OC,"inconclusive: 7.3 µM [inhibitor, partial curve, poor fit]"
20,CCC1=C(CC2NCCc3ccccc32)CC2c3cc(OC)c(OC)cc3CCN2C1 (stereo not drawn),"inconclusive: 5.62 µM [inhibitor, full curve, poor fit]"
21,Cc1ccc(C(=O)Nc2ncccc2O)o1,"inconclusive: 20 µM [activator, single point]"
22,Cc1occc1C(=O)OCC(=O)Nc1ccc(F)cc1,inactive
